The record followed here is US20260265316A1 (DBV Technologies, priority 2023, published 2026).

The data set in a line: peptide synthesis. The note with it: whole synthesis, acetate; for final HPLC purity: 215 nm.

Take Ac-QLQPFPQPELPYPQPELPYPQPELPYPQPQP-NH2: the “final HPLC purity” value is on record as 97.0% and the isolated yield amounted to 46.5%.

H-PQPEQPEQPFPEQPQ-NH2: the “final HPLC purity” value is recorded as 96.4% and the isolated yield came to 65.1%.

Take H-PQQPFPQPEQPFPWQPQ-NH2: the “final HPLC purity” value is reported as 97.6% and the isolated yield is given as 58.9%.

Regarding H-PSGEGSFQPSQENPQ-NH2, the “final HPLC purity” value was found to be 98.5% and the isolated yield was 43.6%.

B1: 4K (SEQ ID NO 46) (peptide)
chain: QLQPFPQPELPYPQPELPYPQPELPYPQPQPKKKKPQPEQPEQPFPEQPQKKKKPQQPFPQPEQPFPWQPQKKKKPSGEGSFQPSQENPQ
For B1, the “final HPLC purity” value was found to be 96.6% and the isolated yield amounted to 22.0%.
